Measurements published in PMC7283462.

What follows are binders tested against porcine circovirus type 2 capsid protein (porcine circovirus type 2, strain HZ0201) (assay: affinity purification with mass spectrometry; lysates (NP-40 buffer) of PK-15 cells infected with PCV2 at MOI 1.0 for 48 h, immunoprecipitated with purified anti-Cap IgG and protein A/G agarose; silver-stained gel, LC-MS; mock-infected cells as negative control).

| Binder | binding |
| --- | --- |
| ADI1 (protein, UniProt I3LEI8 1-179) MVQAWYMDESADDPRLPHRTEPARPVGLDQLRRLGVLYWKLDADKYENDPELEKIRNERNYSWMDIITICRDKLPNYEEKIKTFYEEHLHLDDEIRYILDGSGYFDVRDQDDRWIRIFMEKGDLITLPAGIYHRFTLDEQNYVKAMRLFVGDPVWTPYNRPADHLEARGQYLRFLAQST | binds |
| ALDH2 (protein, UniProt Q2XQV4 22-521) SAAPTQAVPAPNQQPEIFYNQIFINNEWHDAISKKTFPTVNPSTGDVICHVAEGDKEDVDRAVEAARAAFQLGSPWRRLDASDRGRLLNRLADLIERDRTYLAALETLDNGKPYVISYLVDLDMVLKCLRYYAGWADKYHGKTLPIDGDYFSYTRHEPVGVCGQIIPWNFPLLMQAWKLGPALATGNVVVMKVSEQTPLTALYVANLIKEAGFPPGVVNIVPGYGPTAGAAIASHEDVDKVAFTGSTEVGHLIQVAAGKSNLKRVTLELGGKSPNIIMSDADMDWAVEQAHFALFFNQGQCCCAGSRTFVQEDIYAEFVERSVARARSRVVGNPFDSRTEQGPQIDETQFKKILGYIKSGKEEGAKLLCGGGAAADRGYFIQPTVFGDVQDGMTIAKEEIFGPVMQILKFKTIEEVIGRANNSKYGLAAAVFTKDLDKANYLSQALQAGTVWVNCYDVFGAQSPFGGYKLSGSGRELGEYGLQAYTEVKTVTVKVPQKNS | binds |
| ITIH2 (protein, UniProt O02668 54-691) EGVDQVTLYSYKVQSTITSRMANTVIQTKVVNHSPEPQDVVFDIQIPKGAFISNFSMTVDGTKFTSSIKEKTVGRALYWQARAKGKTAGLVRSRALDMENFKTEVNIAPGAKVQFELHYQEVKWRNLGSYEHRIHLQPGRLAKHLEVDVQIIEPQGLRFLHVLDTFDGHFDGVPVVVKGQQKAHVAFKPTVAQQRKCPSCSETAVDGELVVMYDVNREQKAGELQLFNGYFVHFFAPESMDPIPKNILFVIDVSGSMWGIKMKQTVEAMKTILDDLRAEDQFSLVDFNHNIRTWRNDLVSATKTQVADAKTYIEKIQPSGGTNINEALLRAIFILNEANNLGLLDPNSVSLIILVSDGDPTVGELQLSKIQKNVKQNIQDNVSLFSLGIGFDVDYDFLKRLSNDNRGMAQRIYGNQDTASQLKKFYNQVSTPLLRNVQFNYPQASVTDVTQNSFPNYFGGSEIVVAGKFNPEKLEQLQGIITATSANVELVLETLAEMDGLEAFLAKDRHADPDFTKKLWAYLTINQLLDERSRAPSAAVKKKITKSILQMSLDHHIVTPLTAMVVENEAGDERMLADAPPQDQSCCSGTLNYGRKVTPNSLPSWVNPLPTPRVPLPAVGPSVIEATPPPHVMRVEND | binds |
| USH1G (protein, UniProt F1RVV1 1-461) MNDQYHRAARDGYLELLKEATRKELNAPDEDGMTPTLWAAYHGNLESLRLIVSRGGDPDKCDIWGNTPLHLAASNGHLHCLSFLVSFGANIWCLDNDYHTPLDMGAMKGHMECVRYLDSIAAKQSSLNPKLVGKLKDKAFREAERRIRECAKMQRKHHERMERRYRRELAERSDTLSFSSLTSSTLSRRLQHLALGSHVPYSQATLHGTAKGKTKIQRKLERRKQGGEGTFKISEDGRKSVRSLSGLQLGSDVMFVRQGTYANPKEWGRAPLRDMFLSDEDSVSRATLAAEPAHSEVSTDSGHDSLFTRPGLGTMVFRRNYLSSGLHGLGREDAALDGGGTPRARLQSSPSLDDDSLGSANSLQDRSCGEELPWDELDLGLDEDLEPETSPLETFLASLHMEDFTPLLRQEKIDLEALMLCSDLDLRSISVPLGPRKKIMGAVRRRRQTLERPPALEDTEL | binds |
| MX dynamin like GTPase 2 (protein, UniProt A7VK00 1-711) MPKPRMSWPYQRHRQASSPPHPHKEMNFFPQQPLPLGAGPGQMTFPLNWQMGGKDLTKGLNMLTLSPQQPGGKSGQQTSKGPENNLYSPFEEKVRPCIDLIDSLRALGVEQDLALPTIAVIGDQSSGKSSVLEALSGVPLPRGSGIITRCPLALRLKKKECPWQGRISYRKVELQLQDPSQVEREIRKAQDAIAGSGVGISHELISLEVTSPEVPDLTLIDLPGITRVAVGNQPQDIGLQIKALIRKYIQEQQTINLVVVPCNVDIATTEALRMAQEVDPEGDRTIGILTKPDLVDTGAEKVVLNVMQNLTYHLKKGYMIVKCRGQQEILNKLSLAEATKREIAFFHSHPHFRILLEEGKATVPRLAERLTVELIGHISKSLPLLFSQIKEIHQSATEELRLCGASVPSNDADKMFFLIEKIKVFNQDIENLAEGEEIVKEKEARLYNKIREEFKSWIVTLDCNSKKVKNIIHEEVSKYDRQYRGKELMGFVSYKTFESIVRQYLEELVDPALGMLQTVVEIVRQTFSDTAQKNFGEFSNLNQTTQNKVDSIAARAAERAEGLIRLQFRMEQLVFCQDDIYRVDLKAVREELFNPVAEHPQSLQLRLPFVNGPSPVSSITEIGVHVNAYFMGTSQRLANQIPFIIQYCVLQESRDHLQKAMMQMLQGREQYSWLLQEESHTSAKRHFLKEKIHRLAEARHTLSKFAQSLQG | binds |

No constants are given. Whether binding was seen depends on the method and setting. Binding seen in cells or lysates may run through a third protein. Here binding means that the protein was enriched with, or labelled near, the bait; the list need not be complete.
